Test results as given in patent US20130197189A1, “Method For Synthesizing A Cyclic Multivalent Peptide Using A Thiol-Mediated Reaction” (The Regents of the University of Colorado, A Body Corporate, priority 2010, published 2013).
Not every detail of the peptide structures is certain; ends, links or a residue may be inferred. Some of these results come from one statement about several compounds together.

Molecular target: T1, GPIIb/IIIa (Homo sapiens, UniProt P05106+P08514)
T1 construct: purchased Enzyme Research Laboratories (South Bend, Ind.)
T1 sequence (P08514 32-887 limits assumed): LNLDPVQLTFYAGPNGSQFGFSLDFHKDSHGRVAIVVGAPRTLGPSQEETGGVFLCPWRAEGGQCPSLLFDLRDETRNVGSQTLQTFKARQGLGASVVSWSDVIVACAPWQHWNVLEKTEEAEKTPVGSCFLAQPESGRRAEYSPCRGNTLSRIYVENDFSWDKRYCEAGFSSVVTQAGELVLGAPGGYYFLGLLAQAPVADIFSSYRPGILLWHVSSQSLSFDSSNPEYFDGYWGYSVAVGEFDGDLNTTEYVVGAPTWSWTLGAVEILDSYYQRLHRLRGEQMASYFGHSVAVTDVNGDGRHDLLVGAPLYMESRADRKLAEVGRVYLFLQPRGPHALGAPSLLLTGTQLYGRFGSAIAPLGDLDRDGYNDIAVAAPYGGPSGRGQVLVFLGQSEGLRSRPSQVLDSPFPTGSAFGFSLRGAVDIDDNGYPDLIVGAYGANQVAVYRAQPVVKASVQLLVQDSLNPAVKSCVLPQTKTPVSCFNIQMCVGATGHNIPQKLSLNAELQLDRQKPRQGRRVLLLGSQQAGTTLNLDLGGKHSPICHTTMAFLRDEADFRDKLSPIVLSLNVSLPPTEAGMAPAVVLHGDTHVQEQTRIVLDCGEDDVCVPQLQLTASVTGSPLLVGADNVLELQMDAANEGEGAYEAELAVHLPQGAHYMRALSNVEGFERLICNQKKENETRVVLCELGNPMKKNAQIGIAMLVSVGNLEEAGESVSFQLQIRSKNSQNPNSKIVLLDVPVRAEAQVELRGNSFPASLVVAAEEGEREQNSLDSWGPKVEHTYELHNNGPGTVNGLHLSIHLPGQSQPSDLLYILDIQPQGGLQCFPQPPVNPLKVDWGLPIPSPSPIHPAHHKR
T1 sequence (P05106 27-788): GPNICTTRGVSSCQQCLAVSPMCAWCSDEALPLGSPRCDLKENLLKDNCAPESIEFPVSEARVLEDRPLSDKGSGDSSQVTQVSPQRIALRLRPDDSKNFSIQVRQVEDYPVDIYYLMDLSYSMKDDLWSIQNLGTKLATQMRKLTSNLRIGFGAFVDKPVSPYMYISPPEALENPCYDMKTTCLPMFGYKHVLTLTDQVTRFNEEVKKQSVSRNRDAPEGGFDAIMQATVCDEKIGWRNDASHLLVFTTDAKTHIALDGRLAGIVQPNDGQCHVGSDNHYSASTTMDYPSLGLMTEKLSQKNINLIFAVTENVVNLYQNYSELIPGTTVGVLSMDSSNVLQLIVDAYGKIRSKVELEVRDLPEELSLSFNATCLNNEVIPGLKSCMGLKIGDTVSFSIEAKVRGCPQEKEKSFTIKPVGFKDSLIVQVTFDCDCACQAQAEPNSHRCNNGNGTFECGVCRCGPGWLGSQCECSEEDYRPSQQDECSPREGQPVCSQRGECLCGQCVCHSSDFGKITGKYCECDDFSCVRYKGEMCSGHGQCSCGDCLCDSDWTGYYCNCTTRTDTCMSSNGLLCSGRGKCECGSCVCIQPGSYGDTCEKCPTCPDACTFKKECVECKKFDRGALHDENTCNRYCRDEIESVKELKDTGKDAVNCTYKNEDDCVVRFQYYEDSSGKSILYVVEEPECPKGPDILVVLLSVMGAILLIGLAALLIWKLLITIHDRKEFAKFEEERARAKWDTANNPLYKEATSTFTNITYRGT
Assay: Fibrinogen binding ELISA (competitive binding ELISA: inhibition of fibrinogen binding to GPIIb/IIIa)
Settings: for IC50: Table 2, mean ± SEM, triplicate, repeated twice, peptide concentration as total molecule molarity, not normalized [RGD]
Procedure: A 96-well Maxisorp plate (Nunc) was coated with GPIIb/IIIa (10 μg mL^−1, 100 μL) and incubated at 4° C. overnight. The plate was washed (5×) with buffer (50 mM Tris-HCl, 100 mM NaCl, 2 mM CaCl2, 0.05% Tween20, pH 7.4). Blocking solution (3.5% BSA, 100 μL) was added to the well and incubated at 37° C. for 3 hours. The plate was washed (5×) with buffer. Peptides (50 μL) and fibrinogen (40nM, 50 μL) were added to the plate and incubated at room temperature for 3 hours. The plate was washed (5×) and antibody (goat polyclonal to fibrinogen (HRP), 1:20,000 dilution, 100 μL) was added to the plate and incubated for 1 hour at room temperature. The plate was washed (5×) and substrate (2,2′-azino-bis(3-ethylbenzthiazoline-6-sulphonic acid, ABTS, 100 μL) was added to the wells and allowed to react for 5 minutes. The absorbance was measured (Perkin Elmer Wallac Victor2 1420 Multilabel Counter) at 405 nm. The data was analyzed using Graphpad Prism 5.
Glycoprotein Iib-IIIa (GPIIb/IIIa) is present on platelets and its binding to fibrinogen has been associated with platelet aggregation.
A competitive binding ELISA was used to determine the potency of the multivalent RGD peptides. GPIIb/IIIa is known to contain the integrins αIIβ and β3, which bind RGD peptide sequences. Fibrinogen is also known to bind to these integrins. The ELISA was performed to quantitate the inhibition of bound fibrinogen in the presence of RGD peptide. The ELISA was performed as described previously.4 Briefly, GPIIb/IIIa was incubated in a 96 well Maxisorp plate (Nunc) (10 μg ml^−1) overnight at 4° C. The plate was blocked for non-specific interactions using BSA (3.5 wt%, 3 hr). Varying peptides concentrations and fibrinogen (40 nM) was incubated in the plate for 3 hr at room temperature. Fibrinogen antibody (HRP) (1:20,000 dilution) as added (1 hr). The substrate (2,2′-Azinobis[3-ethylbenzothiazoline-6-sulfonic acid]-diammonium salt-ABTS) was added and the absorbance measured at 405 nm. Peptide concentrations are reported as total molecule molarity as opposed to normalized [RGD].

Compound	IC50	decreased IC50 value relative to monomeric species (multivalent RGD vs its monomer (compound #1 or #2))
N=C(N)NCCC[C@H](NC(=O)CNC(=O)CNC(=O)[C@@H](N)CSCC(CCC(=O)NCCCC[C@H](NC(=O)CN)C(=O)NCC(N)=O)SC[C@H](N)C(=O)NCC(=O)NCC(=O)N[C@@H](CCCNC(=N)N)C(=O)NCC(=O)N[C@@H](CC(=O)O)C(=O)N[C@@H](CO)C(N)=O)C(=O)NCC(=O)N[C@@H](CC(=O)O)C(=O)N[C@@H](CO)C(N)=O (stereo partly shown) [Compound #3]	5.65 ± 1.5 µM	
N=C(N)NCCC[C@H](NC(=O)CNC(=O)CNC(=O)[C@@H](N)CSCC(CCC(=O)NCCCC[C@H](NC(=O)CN)C(=O)NCC(=O)NCCCCCC(=O)NCC(=O)N[C@@H](CCCCNC(=O)CCC(CSC[C@H](N)C(=O)NCC(=O)NCC(=O)N[C@@H](CCCNC(=N)N)C(=O)NCC(=O)N[C@@H](CC(=O)O)C(=O)N[C@@H](CO)C(N)=O)SC[C@H](N)C(=O)NCC(=O)NCC(=O)N[C@@H](CCCNC(=N)N)C(=O)NCC(=O)N[C@@H](CC(=O)O)C(=O)N[C@@H](CO)C(N)=O)C(=O)NCC(N)=O)SC[C@H](N)C(=O)NCC(=O)NCC(=O)N[C@@H](CCCNC(=N)N)C(=O)NCC(=O)N[C@@H](CC(=O)O)C(=O)N[C@@H](CO)C(N)=O)C(=O)NCC(=O)N[C@@H](CC(=O)O)C(=O)N[C@@H](CO)C(N)=O (stereo partly shown) [Compound #4]	2.42 ± 4.2 µM	
N=C(N)NCCC[C@H](NC(=O)CNC(=O)CNC(=O)[C@@H](N)CSCC(CCC(=O)NCCCC[C@H](NC(=O)CN)C(=O)NCC(=O)NCCCCCC(=O)NCC(=O)N[C@@H](CCCCNC(=O)CCC(CSC[C@H](N)C(=O)NCC(=O)NCC(=O)N[C@@H](CCCNC(=N)N)C(=O)NCC(=O)N[C@@H](CC(=O)O)C(=O)N[C@@H](CO)C(N)=O)SC[C@H](N)C(=O)NCC(=O)NCC(=O)N[C@@H](CCCNC(=N)N)C(=O)NCC(=O)N[C@@H](CC(=O)O)C(=O)N[C@@H](CO)C(N)=O)C(=O)NCC(=O)NCCCCCC(=O)NCC(=O)N[C@@H](CCCCNC(=O)CCC(CSC[C@H](N)C(=O)NCC(=O)NCC(=O)N[C@@H](CCCNC(=N)N)C(=O)NCC(=O)N[C@@H](CC(=O)O)C(=O)N[C@@H](CO)C(N)=O)SC[C@H](N)C(=O)NCC(=O)NCC(=O)N[C@@H](CCCNC(=N)N)C(=O)NCC(=O)N[C@@H](CC(=O)O)C(=O)N[C@@H](CO)C(N)=O)C(=O)NCC(N)=O)SC[C@H](N)C(=O)NCC(=O)NCC(=O)N[C@@H](CCCNC(=N)N)C(=O)NCC(=O)N[C@@H](CC(=O)O)C(=O)N[C@@H](CO)C(N)=O)C(=O)NCC(=O)N[C@@H](CC(=O)O)C(=O)N[C@@H](CO)C(N)=O (stereo partly shown) [Compound #5]	0.76 ± 0.2 µM	1.5-2 orders of magnitude
